According to PubChem BioAssay AID504834 (National Center for Advancing Translational Sciences (NCATS), 2011):
Hit rate of the full screen: of about 320,000 compounds, about 22,000 (6.9%) were called active. Inconclusive results, whose numbers are uncertain, are shown with a selection of clear calls. The call rests on the fitted dose curve; in most records, active means well fitted inhibition curve with a large enough effect; inconclusive means small, poorly fitted or top-dose-only effect, or another doubt; inactive means no such curve, though single readings can be large or run the other way. Potencies beside an inconclusive call are fits to weak or partial responses and may not hold up. The source holds several records for some structures; these can differ, active in one and inactive in another.

assay: Primary qHTS for delayed death inhibitors of the malarial parasite plastid, 96 hour incubation; settings: P. falciparum luciferase reporter growth; series mostly up to 28.7 µM
In short: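 Two-generation exposure (96 h) targets delayed-death phenotype. Reporter parasites carrying integrated firefly luciferase, in red cells at 2% hematocrit and 0.05% parasitemia final, kept at 37 C, 5% CO2; luminescence loss indicates inhibition.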
Potency means the concentration at half of the fitted maximal effect.

Compound	Potency
COc1ccccc1-c1coc2c(CN3CCC(C)CC3)c(O)ccc2c1=O	inconclusive: 9.28 µM [inhibitor, partial curve, poor fit]
Cn1c(SCc2cccc(Br)c2)nc2ccccc2c1=O	inconclusive: 18.5 µM [inhibitor, single point]
COc1ccc(C2=CC(c3cccc(OC)c3)n3nnnc3N2)cc1 (stereo not given)	inconclusive: 11.7 µM [inhibitor, single point]
N#Cc1ccc(C(=O)Nc2cc(C3CC3)nn2-c2ccccc2)cc1	inconclusive: 9.28 µM [inhibitor, partial curve, poor fit]
COc1ccc(N2C(=O)/C(=C/c3ccc([N+](=O)[O-])cc3)N=C2C)c(OC)c1	inconclusive: 0.0657 µM [inhibitor, full curve, poor fit]
COc1cc(N/N=C(\C)c2ccc(N)cc2)nc(-c2ccccc2)n1	inconclusive: 18.5 µM [inhibitor, single point]
CC(C)n1cc(/C=C2/SC(=O)N(CC(=O)Nc3ccc4c(c3)OCO4)C2=O)c2ccccc21	inconclusive: 4.15 µM [inhibitor, single point]
Oc1ccccc1C=NCCN=Cc1ccccc1O	inactive
COc1cccc2c(=O)c(SC(F)(F)C(F)C(F)(F)F)c(C)[nH]c12 (stereo not given)	active: 3.7 µM
COc1ccccc1CCn1cc(C#N)c(=O)[nH]c1=O	inactive
CN(C)CCN(Cc1cccs1)c1ccccn1	inconclusive: 4.78 µM [inhibitor, partial curve, poor fit]
FC(F)(F)Oc1ccc(Nc2nc3ccccc3o2)cc1	inconclusive: 18.5 µM [inhibitor, single point]
CCCCCCc1cc2cc(C(=O)Nc3cccc(OC)c3)c(=O)oc2cc1O	inactive
O=c1[nH]c(/C=C\c2cccc(F)c2)nc(O)c1[N+](=O)[O-]	inconclusive: 18.5 µM [inhibitor, single point]
COC(=O)c1cc(C(=O)c2ccccc2)n2c(=O)/c(=C\N(C)C)sc12	inactive
Cc1nc(Cl)c(Cl)n1CCOc1ccccc1	inconclusive: 18.5 µM [inhibitor, partial curve, poor fit]
COc1cc(CNCc2cccs2)ccc1OCc1ccccc1	inconclusive: 18.5 µM [inhibitor, single point]
COc1ccc(/C=N/N=C/c2ccc(OC)cc2)cc1	inconclusive: 11.7 µM [inhibitor, single point]
O=C(c1cccc([N+](=O)[O-])c1)N1CCN(c2ncccn2)CC1	inactive
CCOC(=O)C1CCN(S(=O)(=O)c2ccc3c(ccn3C)c2)CC1	inconclusive: 16.5 µM [inhibitor, single point]
C/C(=N/NC(=O)CNS(=O)(=O)c1ccc(C)cc1)c1cccc([N+](=O)[O-])c1	inconclusive: 18.5 µM [inhibitor, single point]
O=c1c2sccc2nc(SCc2ccc([N+](=O)[O-])cc2)n1Cc1ccccn1	inactive
CC(=O)c1c(C)[nH]c(C(=O)COc2cc(C)ccc2C(C)C)c1C	active: 4.65 µM
O=C(CSCc1ccc(F)cc1)NCc1ccc2c(c1)OCO2	inactive

Compound	Potency
CCOC(=O)C1(Cc2cccc(OC)c2)CCN(C/C=C/c2ccc(OC)cc2)CC1	inactive
Cc1ccc(-c2nnc(N3CCOCC3)c3ccccc23)cc1S(=O)(=O)N(C)C	inactive
CCCCCC(NC(=O)C1CCN(C(=O)[C@@H](NS(=O)(=O)c2ccc(C)cc2)C(C)C)CC1)C(=O)O (stereo not given in full)	inconclusive: 0.0033 µM [inhibitor, full curve, poor fit]
Cc1cc(N2C3CCC2CC(O)(c2ccc(F)cc2)C3)nc(-c2ccccc2)n1 (stereo not given)	inconclusive: 13.1 µM [inhibitor, partial curve]
CCOc1ccccc1CN1CCNC(=O)C1CC(=O)NCc1ccccn1 (stereo not given)	inconclusive: 18.5 µM [inhibitor, single point]
CC(C)(C)c1ccc(/C=C/C(=O)NCCCn2ccnc2)cc1	inactive
CCOC(=O)N1CCC(N2Cc3cccc(C(=O)Nc4ccccc4OC)c3C2=O)CC1	inconclusive: 13.1 µM [inhibitor, single point]
COc1ccc(COCC(CC(C)C)N2CCN(C(=O)c3cccc(C(F)(F)F)c3)CCC2=O)cc1 (stereo not given)	inconclusive: 11.7 µM [inhibitor, single point]
O=C(NCCS(=O)(=O)N1CCN(c2ccc(F)cc2)CC1)c1ccc2c(c1)OCO2	inactive
Cc1ccc(S(=O)(=O)N2CCN(Cc3ccccc3)CC2)s1	inconclusive: 18.5 µM [inhibitor, single point]
CC(=O)Nc1ccc(S(=O)(=O)NCc2ccc(C(=O)N3CCOCC3)cc2)cc1	inconclusive: 3.7 µM [inhibitor, single point]
COc1ccc(-n2nc3c(N4CCC(C(=O)N5CCC(C)CC5)CC4)nnc(C)c3c2C)cc1	inactive
COC(=O)CSc1cc(SCC(=O)OC)c(C#N)c(SCC(=O)OC)c1	inconclusive: 0.147 µM [inhibitor, full curve, poor fit]
Cc1ccc(C)c(NC(=O)Cc2nc(CCl)cs2)c1	inconclusive: 18.5 µM [inhibitor, single point]
Cc1nc(-c2ccccc2)sc1C(=O)/C=C/c1ccc(Cl)cc1	inconclusive: 8.28 µM [inhibitor, partial curve, poor fit]
CCOc1ccc(Cl)cc1CNCCc1ccc(F)cc1	inconclusive: 4.15 µM [inhibitor, single point]
Cc1cc(=O)n2nc(N3CCCC(C(=O)NCc4ccccc4C)C3)sc2n1 (stereo not given)	inconclusive: 18.5 µM [inhibitor, single point]
O=C(Cc1csc(Nc2nc(=S)[nH]c3ccccc23)n1)NCc1ccccc1Cl	inconclusive: 10.4 µM [inhibitor, single point]
CC(=O)Nc1cccc(C(=O)NNC(=O)c2n[nH]c(=O)c3ccccc23)c1	inactive
CCOc1ccc(NC(=O)CN(C)C(=O)c2ccc(COc3ccccc3)o2)cc1OCC	inconclusive: 14.7 µM [inhibitor, single point]
C=CCn1cc(C(=O)OC)c(=O)c2cc(S(=O)(=O)N(CC)CC)ccc21	inconclusive: 11.7 µM [inhibitor, single point]
O=C(NCc1ccccc1CN1CCCC1)C1CCN(S(=O)(=O)c2ccc(F)c(F)c2)CC1	inconclusive: 5.22 µM [inhibitor, partial curve]
CC(C)c1ccc(NC(=O)C2CCCN(S(=O)(=O)c3cnc[nH]3)C2)cc1 (stereo not given)	inconclusive: 14.7 µM [inhibitor, partial curve, poor fit]
COc1cc(/C=N/NC(=O)c2cc(-c3ccccc3)nc3ccccc23)cc(OC)c1O	inconclusive: 18.5 µM [inhibitor, single point]

A different layout for some results above:
Compound | Potency
Cc1cc(=O)n2nc(N3CCCC(C(=O)NCc4ccccc4C)C3)sc2n1 (stereo not given) | inconclusive: 18.5 µM [inhibitor, single point]
O=C(Cc1csc(Nc2nc(=S)[nH]c3ccccc23)n1)NCc1ccccc1Cl | inconclusive: 10.4 µM [inhibitor, single point]
CC(=O)Nc1cccc(C(=O)NNC(=O)c2n[nH]c(=O)c3ccccc23)c1 | inactive

Remaining list, next part.

Compound	Potency
CCCc1cc(-c2nc(N)ncc2-c2csc(C)n2)c(O)cc1OC	inconclusive: 5.22 µM [inhibitor, partial curve, poor fit]
CCN1CCN(C(=O)c2cc3ccc(OC)cc3[nH]2)CC1	inactive
Cc1ccccc1-c1nc(Cc2ccc(Cl)cc2)no1	inactive
CN1/C(=C\C(=O)c2cccc([N+](=O)[O-])c2)Sc2ccccc21	inactive
COc1ccccc1P(=O)(c1ccccc1)c1ccc([N+](=O)[O-])cc1 (stereo not given)	inactive
Cc1ccc(NC(=O)CNC(=O)c2cccs2)c(O)c1	inconclusive: 18.5 µM [inhibitor, single point]
C=CCn1c(O)c(N=NC(=S)Nc2ccc(OC)cc2)c2ccccc21	inactive
CC(C)C(=O)c1cn(CC(=O)N2CCCc3ccccc32)c2ccccc12	inconclusive: 13.1 µM [inhibitor, partial curve, poor fit]
COc1ccccc1C(=O)NC(CCSC)C(=O)N1CCC(Cc2ccccc2)CC1 (stereo not given)	inconclusive: 10.4 µM [inhibitor, partial curve, poor fit]
CCOc1ccc(NS(=O)(=O)c2ccc3c(c2)CCN3C(=O)C2CCC2)cc1	inactive
CCCn1c(SCC(=O)N2CCN(C(=O)c3ccco3)CC2)nc2ccccc2c1=O	inactive
Cn1c(=O)c2c(nc(CN3CCN(C(=O)c4ccco4)CC3)n2CCCO)n(C)c1=O	inconclusive: 18.5 µM [inhibitor, single point]
CN(Cc1ccc(Cl)c(Cl)c1)C(=O)C1=CC=CN2CCS(=O)(=O)N=C12	active: 1.47 µM
CCn1cc(/C=N\NC(=O)c2cc(-c3ccccc3OC)nc3ccccc23)c(C)n1	active: 1.85 µM
CCOC(=O)c1cccc(-n2c(-c3ccc(OC)cc3)nc3nc4ccccc4nc32)c1	inconclusive: 2.62 µM [inhibitor, full curve, poor fit]
CCN1CCN(c2ccc(NC(=O)c3ccc4c(c3)[nH]c(=O)n4Cc3ccc(F)cc3)cc2)CC1	active: 13.1 µM
COC(=O)[C@H](Cc1c[nH]c2ccccc12)NC(=O)NCc1ccc(OC)cc1	inactive
S=C(Nc1ccccn1)c1ccccn1	active: 6.57 µM
Cc1cc(NC(=O)CCC(=O)N(c2cccc(F)c2)C(C(=O)NC2CCCC2)c2ccccc2)no1 (stereo not given)	inconclusive: 18.5 µM [inhibitor, single point]
Cc1ccc(CCNC(=O)C2CC(=O)N(C3CCCCC3)C2)cc1 (stereo not given)	active: 1.47 µM
Cc1csc(=O)n1CCC(=O)OCC(=O)Nc1cccc(C#N)c1	inactive
COc1ccc(C(=O)CN2C(=O)NC3(CCCc4ccccc43)C2=O)cc1 (stereo not given)	active: 10.4 µM
